Some of the results follow. Shown are side measurements of this screen, not its main read-out; they come without a call. The list favours compounds with an active or inconclusive main result. Potencies come from curve fits of mixed quality, noted in brackets.
Assay: qHTS Assay for Modulators of Lamin A Splicing
Settings: HeLa LMNA splicing GFP/RFP minigene ratio, 48 h
In short: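 S3 HeLa cells stably expressing lamin A-EGFP splicing minigene plus DsRed2, 600 cells/well, 48 h compound exposure at 37C. Laser-scanning cytometry; analysed as GFP (500-530 nm)/RFP (575-640 nm) total intensity ratio; 0.5% DMSO vehicle.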

[1] = measured here: GFP splicing reporter channel
[2] = measured here: RFP viability control channel

| SMILES | AC50 [1] | AC50 [2] |
| --- | --- | --- |
| Cc1nn(-c2ccccc2)c2c1C(c1ccc(Cl)cc1)N(c1ccccc1)C(=O)N2 (configuration not stated) | 5.62 µM [rising, full curve, poor fit] | 17.8 µM [rising, partial curve] |
| COC/C=C/C1=CC2=CC(=O)C(C)(OC(=O)c3cnc4ccccc4n3)C(=O)C2=CN1Cc1ccc(OC)cc1 (configuration not stated) |  | 6.31 µM [rising, single point] |
| O=C(NC(=S)Nc1cc([N+](=O)[O-])ccc1Cl)c1ccccc1 | 35.5 µM [rising, single point] |  |
| CN(C)NC1CC(=O)N(c2ccccc2)C1=O (configuration not stated) | 20 µM [falling, partial curve, poor fit] | 11.2 µM [falling, partial curve] |
| O=C(NCC1CCCO1)c1ccc(Oc2ccc([N+](=O)[O-])cc2)cc1 (configuration not stated) | 0.0355 µM [falling, full curve, poor fit] |  |
| Cc1ccc(NC(=O)c2cnc(N3CCCCC3)c3ccccc23)cc1Cl | 15.8 µM [falling, single point] |  |
| CCN(CC)c1ccc(/C=N/OC(C)C(=O)Nc2ccc(C)cc2)cc1 (configuration not stated) |  | 31.6 µM [rising, single point] |
| CCCCN(C)C1=CC2=CC(=C(C#N)C#N)CCC2CC1 (configuration not stated) | 0.631 µM [falling, full curve] | 0.501 µM [falling, full curve] |
| CCc1cccc(CC)c1NC(=S)NCCc1ccc(O)c(O)c1 | 35.5 µM [falling, single point] |  |
| COc1cc2c(cc1NC(=S)NC(=O)c1c(OC)cccc1OC)oc1ccccc12 | 2 µM [rising, full curve, poor fit] | 3.16 µM [rising, full curve] |
| Cc1n[nH]c(C)c1CCc1nc2c3ccccc3nc(SCC(=O)Nc3ccc(F)cc3)n2n1 | 22.4 µM [falling, partial curve, poor fit] | 22.4 µM [falling, partial curve, poor fit] |
| O=C(/C=C/c1ccccc1)CC(O)(c1ccccc1)C(F)(F)C(F)F (configuration not stated) | 35.5 µM [falling, single point] | 35.5 µM [falling, single point] |
| COc1cc(C2CC(=O)NC(SCC(=O)Nc3ccccc3C)=C2C#N)ccc1O (configuration not stated) | 3.98 µM [falling, single point] | 3.16 µM [falling, single point] |
| Cc1cccc(Nc2nc3ccccc3s2)c1C | 3.55 µM [rising, partial curve] | 8.91 µM [rising, partial curve, poor fit] |

2 records picked at random from the list so far, as already listed:

| SMILES | AC50 [1] | AC50 [2] |
| --- | --- | --- |
| O=C(NC(=S)Nc1cc([N+](=O)[O-])ccc1Cl)c1ccccc1 | 35.5 µM [rising, single point] |  |
| Cc1ccc(NC(=O)c2cnc(N3CCCCC3)c3ccccc23)cc1Cl | 15.8 µM [falling, single point] |  |

Source: PubChem BioAssay AID1487 (National Center for Advancing Translational Sciences (NCATS), 2009)
